{"source": "patent US10802016B2", "about": "“Microdroplet based bioassay platform” (Northeastern University, priority 2015, dated 2020)", "tested_on": "green fluorescent protein (GFP) E. coli K-12", "assay": "Intradroplet bacterial growth/replication for antibiotic susceptibility in microfluidic droplets", "assay_type": "cell-based", "details": "levofloxacin at 1 mg/L; bacteria treated in urine; t=0 to t=1.5 hrs", "note": "For at least one compound, name, drawing or mass did not settle the structure."}
{"compound": "C[C@H]1COc2c(N3CCN(C)CC3)c(F)cc3c(=O)c(C(=O)O)cn1c23", "note": "[levofloxacin]", "values": [{"measurement": "bacterial replication within single droplets", "result": "no replication"}]}
